In patent US20230374150A1:
Results are given in words; binding and its absence hold for the method and conditions named. Some results given as binding are weak or reduced against the parent protein; the word gives no strength.

Molecular target: cynomolgus PSMA (ACRO) (cynomolgus)
Experiment: SPR Biacore, 37 C

binding: binds
B1: 10J5-chimeric J591 (antibody, V domains shown)
VH: EVQLQQSGPELVKPGTSVRISCKTSGYTFTEYTIHWVKQSHGKSLEWIGNINPNNGGTTYNQKFEDKATLTVDKSSSTAYMELRSLTSEDSAVYYCAAGWNFDYWGQGTTLTVSS
VL: DIVMTQSHKFMSTSVGDRVSIICKASQDVGTAVDWYQQKPGQSPKLLIYWASTRHTGVPDRFTGSGSGTDFTLTITNVQSEDLADYFCQQYNSYPLTFGAGTMLDLKR
